Measured values published in patent US20160046689A1 (NOVELOGICS BIOTECHNOLOGY, published 2016).
These are yes or no findings as the source states them, for the method shown. Some results given as binding are weak or reduced against the parent protein; the word gives no strength. Values belong to the binder of their own block, whether it stands above or below them.

Columns and labels:
[1] = target: T1, recombinant E. coli-produced ectodomain protein from human MICA (human) (UniProt Q29983); experiment: indirect ELISA, hybridoma supernatant on coated antigen
T1 sequence (looked up): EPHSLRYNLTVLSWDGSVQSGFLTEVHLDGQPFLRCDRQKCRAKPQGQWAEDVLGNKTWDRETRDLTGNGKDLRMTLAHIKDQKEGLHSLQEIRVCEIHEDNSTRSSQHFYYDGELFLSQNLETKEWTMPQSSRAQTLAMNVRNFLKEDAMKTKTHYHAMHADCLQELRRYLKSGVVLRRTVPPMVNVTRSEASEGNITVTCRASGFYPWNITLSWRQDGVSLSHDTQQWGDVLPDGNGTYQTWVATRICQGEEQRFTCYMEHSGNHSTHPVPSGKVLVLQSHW

[2] = target: T2, recombinant E. coli-produced ectodomain protein from human MICB (human) (UniProt Q29980); experiment: as above
T2 sequence (looked up): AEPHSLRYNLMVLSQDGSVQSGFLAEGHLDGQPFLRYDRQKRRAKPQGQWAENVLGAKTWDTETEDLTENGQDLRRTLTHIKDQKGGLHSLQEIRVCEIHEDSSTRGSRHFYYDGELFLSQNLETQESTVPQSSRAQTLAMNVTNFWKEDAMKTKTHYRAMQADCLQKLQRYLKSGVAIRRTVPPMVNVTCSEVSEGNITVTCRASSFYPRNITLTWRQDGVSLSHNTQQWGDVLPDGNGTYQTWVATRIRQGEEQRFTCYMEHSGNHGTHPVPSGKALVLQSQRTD

binding [1]: binds
binding [2]: binds
B1: antibody 8C7 (antibody, IgG1, V domains shown)
VH: QIQLVQSGPELKKPGETVKISCKASGYTFTNYGMNWVKQAPGKGLKWMGWINTNTGEPTYAEEFKGRFAFSLETSASTAYLQINNLKNEDTATYFCARSGGSSPFAYWGQGTLVTVSA
VL: DIVMTQAAPSVPVTPGESVSISCRSSKSLLQSNGNTFLYWFMQRPGQSPQLLIYRMSNLASGVPDRFSGSGSGTAFTLRISRVEAEDVGVYYCMQHLEYPFTFGGGTKLEIKR
notes: Mouse hybridoma monoclonal, IgG1 heavy chain and kappa light chain; Tested as hybridoma supernatant in ELISA and FACS; also called antibody from clone 8C7; hybridoma clone 8C7

binding [1]: binds
binding [2]: binds
B2: antibody 1F5 (antibody, IgG1, V domains shown)
VH: QIQLVQSGPELKKPGETVKISCKASGYTFTDYSVHWVKQAPGKGLKWMGWINTETGEPTYADDFKGRFAFSLETSASTAYLQINNLKNEDTATYFCARAGGNAFAYWGQGTLVTVSA
VL: DIVLTQSPASLAVSLGQRATISCRASKSVSTSGYSYMHWYQQKPGQPPKLLIYRASNLESGVPARFSGSGSGTDFTLNIHPVEEEDAATYYCQHSRELPLTFGAGTKLELKR
notes: Mouse hybridoma monoclonal, IgG1 heavy chain and kappa light chain; Tested as hybridoma supernatant in ELISA and FACS; also called IF5; antibody from clone 1F5
